Assay results as given in the supplement of paper PMC10849652.
This is one part of the list.

Sequences of proteins named here, by UniProt entry; tags and fusion partners are left off. A change or cut given only in a name is not applied to a line headed by its entry.
UniProt Q7Z6V5: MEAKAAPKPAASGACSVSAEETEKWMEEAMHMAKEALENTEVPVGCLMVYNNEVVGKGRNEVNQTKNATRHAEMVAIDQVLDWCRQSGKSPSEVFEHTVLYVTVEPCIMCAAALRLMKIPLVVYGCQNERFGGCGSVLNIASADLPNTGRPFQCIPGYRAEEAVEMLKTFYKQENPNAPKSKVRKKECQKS
UniProt Q96IU4: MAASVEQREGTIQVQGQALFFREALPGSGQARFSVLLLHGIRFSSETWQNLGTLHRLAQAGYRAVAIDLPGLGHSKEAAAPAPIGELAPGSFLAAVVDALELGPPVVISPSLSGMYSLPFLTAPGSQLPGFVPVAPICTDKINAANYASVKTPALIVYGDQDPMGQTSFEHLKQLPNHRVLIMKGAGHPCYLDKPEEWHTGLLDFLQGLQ
UniProt O15439: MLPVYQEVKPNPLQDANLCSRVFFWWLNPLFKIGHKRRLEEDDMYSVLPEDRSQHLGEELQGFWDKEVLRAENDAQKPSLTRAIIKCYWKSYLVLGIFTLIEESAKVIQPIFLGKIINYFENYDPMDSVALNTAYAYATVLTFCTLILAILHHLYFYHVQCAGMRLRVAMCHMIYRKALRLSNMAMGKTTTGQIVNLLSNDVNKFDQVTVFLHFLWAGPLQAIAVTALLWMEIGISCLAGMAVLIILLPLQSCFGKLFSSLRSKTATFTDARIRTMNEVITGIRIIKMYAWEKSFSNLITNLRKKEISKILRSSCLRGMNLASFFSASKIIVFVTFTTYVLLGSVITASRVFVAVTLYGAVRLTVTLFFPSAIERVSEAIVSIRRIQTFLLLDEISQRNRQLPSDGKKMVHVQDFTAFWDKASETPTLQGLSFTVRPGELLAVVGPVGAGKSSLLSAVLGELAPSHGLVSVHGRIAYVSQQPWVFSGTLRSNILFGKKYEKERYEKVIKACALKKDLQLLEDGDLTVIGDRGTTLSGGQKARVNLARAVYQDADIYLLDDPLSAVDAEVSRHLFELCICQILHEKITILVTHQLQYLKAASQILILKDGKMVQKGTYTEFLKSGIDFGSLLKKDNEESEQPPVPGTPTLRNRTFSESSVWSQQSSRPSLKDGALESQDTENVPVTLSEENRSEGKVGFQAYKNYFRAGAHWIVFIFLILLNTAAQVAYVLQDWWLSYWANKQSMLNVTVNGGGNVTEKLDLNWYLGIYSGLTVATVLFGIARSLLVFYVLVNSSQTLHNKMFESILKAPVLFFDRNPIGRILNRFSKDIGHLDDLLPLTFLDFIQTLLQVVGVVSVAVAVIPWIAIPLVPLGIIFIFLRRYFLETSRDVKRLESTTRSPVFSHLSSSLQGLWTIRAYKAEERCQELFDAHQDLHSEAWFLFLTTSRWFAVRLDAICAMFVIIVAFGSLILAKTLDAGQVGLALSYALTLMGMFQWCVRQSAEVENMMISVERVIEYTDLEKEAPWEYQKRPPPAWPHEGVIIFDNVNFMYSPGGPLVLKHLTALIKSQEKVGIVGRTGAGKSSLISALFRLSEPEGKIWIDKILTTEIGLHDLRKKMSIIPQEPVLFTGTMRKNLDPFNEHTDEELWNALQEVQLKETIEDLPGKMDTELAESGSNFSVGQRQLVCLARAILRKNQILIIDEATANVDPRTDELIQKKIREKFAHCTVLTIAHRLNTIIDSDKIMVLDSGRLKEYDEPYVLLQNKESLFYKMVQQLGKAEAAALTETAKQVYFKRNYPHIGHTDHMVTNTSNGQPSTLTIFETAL
UniProt Q99758: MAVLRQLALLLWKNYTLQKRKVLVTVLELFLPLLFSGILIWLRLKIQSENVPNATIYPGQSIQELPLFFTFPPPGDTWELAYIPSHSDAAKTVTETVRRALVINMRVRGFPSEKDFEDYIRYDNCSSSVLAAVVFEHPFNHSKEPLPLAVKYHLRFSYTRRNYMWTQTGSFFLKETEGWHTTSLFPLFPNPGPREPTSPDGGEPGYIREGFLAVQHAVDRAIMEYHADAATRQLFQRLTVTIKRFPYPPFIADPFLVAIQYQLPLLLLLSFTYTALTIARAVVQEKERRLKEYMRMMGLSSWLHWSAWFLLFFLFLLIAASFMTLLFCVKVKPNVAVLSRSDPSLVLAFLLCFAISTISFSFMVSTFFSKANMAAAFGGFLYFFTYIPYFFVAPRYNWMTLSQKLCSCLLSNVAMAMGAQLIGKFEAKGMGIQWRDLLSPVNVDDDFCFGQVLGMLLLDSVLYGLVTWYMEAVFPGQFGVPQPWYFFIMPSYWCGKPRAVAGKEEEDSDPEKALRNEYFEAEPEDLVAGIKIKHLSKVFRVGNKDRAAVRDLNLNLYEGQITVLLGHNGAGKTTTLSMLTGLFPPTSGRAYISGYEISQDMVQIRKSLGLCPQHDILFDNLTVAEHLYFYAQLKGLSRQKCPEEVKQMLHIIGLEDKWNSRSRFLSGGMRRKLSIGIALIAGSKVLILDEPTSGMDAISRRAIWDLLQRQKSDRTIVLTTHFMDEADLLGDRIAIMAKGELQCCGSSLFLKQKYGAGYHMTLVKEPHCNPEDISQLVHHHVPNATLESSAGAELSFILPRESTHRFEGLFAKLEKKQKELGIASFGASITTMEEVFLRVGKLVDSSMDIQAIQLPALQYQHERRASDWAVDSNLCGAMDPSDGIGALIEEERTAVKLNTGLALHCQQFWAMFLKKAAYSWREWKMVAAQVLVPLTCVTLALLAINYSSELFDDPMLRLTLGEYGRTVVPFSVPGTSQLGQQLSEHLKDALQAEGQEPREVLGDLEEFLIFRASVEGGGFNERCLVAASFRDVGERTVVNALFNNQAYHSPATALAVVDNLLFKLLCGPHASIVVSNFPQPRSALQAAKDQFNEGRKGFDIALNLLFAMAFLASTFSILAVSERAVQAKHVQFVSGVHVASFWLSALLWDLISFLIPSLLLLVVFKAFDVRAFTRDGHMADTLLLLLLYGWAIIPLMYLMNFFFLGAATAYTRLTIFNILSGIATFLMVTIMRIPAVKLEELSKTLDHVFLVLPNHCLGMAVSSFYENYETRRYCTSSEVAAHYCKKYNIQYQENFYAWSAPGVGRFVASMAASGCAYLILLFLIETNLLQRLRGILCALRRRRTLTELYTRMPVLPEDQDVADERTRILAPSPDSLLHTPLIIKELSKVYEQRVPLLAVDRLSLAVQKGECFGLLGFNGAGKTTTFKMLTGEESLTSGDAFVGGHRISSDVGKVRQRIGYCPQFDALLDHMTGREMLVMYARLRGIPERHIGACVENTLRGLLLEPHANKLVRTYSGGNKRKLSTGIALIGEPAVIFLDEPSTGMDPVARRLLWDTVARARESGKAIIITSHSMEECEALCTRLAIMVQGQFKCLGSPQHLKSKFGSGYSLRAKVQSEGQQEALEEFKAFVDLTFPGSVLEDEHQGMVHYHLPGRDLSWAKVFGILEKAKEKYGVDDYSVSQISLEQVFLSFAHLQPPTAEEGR
UniProt Q9NRN7: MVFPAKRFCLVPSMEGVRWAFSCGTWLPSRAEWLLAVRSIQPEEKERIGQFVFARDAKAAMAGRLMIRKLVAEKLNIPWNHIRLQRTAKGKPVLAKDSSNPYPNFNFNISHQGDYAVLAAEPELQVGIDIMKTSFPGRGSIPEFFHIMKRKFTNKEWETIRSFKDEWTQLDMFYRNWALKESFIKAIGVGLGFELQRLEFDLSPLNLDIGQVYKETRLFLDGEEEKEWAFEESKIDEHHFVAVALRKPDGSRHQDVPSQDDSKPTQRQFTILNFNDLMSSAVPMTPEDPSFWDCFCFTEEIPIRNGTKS
UniProt P21399: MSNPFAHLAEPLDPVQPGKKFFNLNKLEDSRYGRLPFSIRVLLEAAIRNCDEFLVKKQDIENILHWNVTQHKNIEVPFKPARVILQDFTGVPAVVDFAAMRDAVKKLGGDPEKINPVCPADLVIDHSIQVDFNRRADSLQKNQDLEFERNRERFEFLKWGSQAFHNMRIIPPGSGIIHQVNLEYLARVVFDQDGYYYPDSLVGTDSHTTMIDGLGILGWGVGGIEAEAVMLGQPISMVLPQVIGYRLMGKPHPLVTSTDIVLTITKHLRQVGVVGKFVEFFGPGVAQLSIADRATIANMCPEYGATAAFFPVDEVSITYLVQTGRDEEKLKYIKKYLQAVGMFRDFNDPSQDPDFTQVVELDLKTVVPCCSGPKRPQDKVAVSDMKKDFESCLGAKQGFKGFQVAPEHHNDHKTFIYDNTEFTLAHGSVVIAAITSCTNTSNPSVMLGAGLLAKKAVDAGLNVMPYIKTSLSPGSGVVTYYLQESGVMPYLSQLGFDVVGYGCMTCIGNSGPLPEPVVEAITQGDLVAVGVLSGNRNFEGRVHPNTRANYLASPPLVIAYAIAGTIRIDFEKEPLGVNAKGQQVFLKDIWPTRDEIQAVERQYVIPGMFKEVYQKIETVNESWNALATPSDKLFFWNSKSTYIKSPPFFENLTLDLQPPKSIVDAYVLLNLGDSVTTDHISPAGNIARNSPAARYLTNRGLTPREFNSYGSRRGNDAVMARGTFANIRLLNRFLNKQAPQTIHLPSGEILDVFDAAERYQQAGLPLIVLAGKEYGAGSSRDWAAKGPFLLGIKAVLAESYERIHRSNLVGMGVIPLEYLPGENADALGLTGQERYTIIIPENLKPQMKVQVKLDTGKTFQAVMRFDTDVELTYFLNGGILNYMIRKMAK
UniProt Q9NR19, whole entry, looked up: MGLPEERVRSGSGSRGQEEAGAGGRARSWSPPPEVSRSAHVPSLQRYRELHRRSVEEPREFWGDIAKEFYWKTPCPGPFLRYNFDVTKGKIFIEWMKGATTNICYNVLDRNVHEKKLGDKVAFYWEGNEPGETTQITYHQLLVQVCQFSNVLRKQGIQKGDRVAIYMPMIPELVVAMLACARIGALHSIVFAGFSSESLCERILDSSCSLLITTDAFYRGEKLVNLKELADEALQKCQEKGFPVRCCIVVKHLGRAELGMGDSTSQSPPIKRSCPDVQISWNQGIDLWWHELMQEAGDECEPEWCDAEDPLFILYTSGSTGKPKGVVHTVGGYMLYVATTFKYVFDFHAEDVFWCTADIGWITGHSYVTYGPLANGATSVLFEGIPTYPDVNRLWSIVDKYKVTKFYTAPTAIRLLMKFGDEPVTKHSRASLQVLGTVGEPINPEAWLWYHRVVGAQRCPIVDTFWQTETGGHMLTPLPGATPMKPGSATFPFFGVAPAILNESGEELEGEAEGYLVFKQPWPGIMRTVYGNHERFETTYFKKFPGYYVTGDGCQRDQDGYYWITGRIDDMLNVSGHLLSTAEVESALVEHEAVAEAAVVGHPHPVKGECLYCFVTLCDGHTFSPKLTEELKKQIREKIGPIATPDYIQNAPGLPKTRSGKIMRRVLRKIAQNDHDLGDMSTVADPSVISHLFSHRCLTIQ
UniProt Q8NE71: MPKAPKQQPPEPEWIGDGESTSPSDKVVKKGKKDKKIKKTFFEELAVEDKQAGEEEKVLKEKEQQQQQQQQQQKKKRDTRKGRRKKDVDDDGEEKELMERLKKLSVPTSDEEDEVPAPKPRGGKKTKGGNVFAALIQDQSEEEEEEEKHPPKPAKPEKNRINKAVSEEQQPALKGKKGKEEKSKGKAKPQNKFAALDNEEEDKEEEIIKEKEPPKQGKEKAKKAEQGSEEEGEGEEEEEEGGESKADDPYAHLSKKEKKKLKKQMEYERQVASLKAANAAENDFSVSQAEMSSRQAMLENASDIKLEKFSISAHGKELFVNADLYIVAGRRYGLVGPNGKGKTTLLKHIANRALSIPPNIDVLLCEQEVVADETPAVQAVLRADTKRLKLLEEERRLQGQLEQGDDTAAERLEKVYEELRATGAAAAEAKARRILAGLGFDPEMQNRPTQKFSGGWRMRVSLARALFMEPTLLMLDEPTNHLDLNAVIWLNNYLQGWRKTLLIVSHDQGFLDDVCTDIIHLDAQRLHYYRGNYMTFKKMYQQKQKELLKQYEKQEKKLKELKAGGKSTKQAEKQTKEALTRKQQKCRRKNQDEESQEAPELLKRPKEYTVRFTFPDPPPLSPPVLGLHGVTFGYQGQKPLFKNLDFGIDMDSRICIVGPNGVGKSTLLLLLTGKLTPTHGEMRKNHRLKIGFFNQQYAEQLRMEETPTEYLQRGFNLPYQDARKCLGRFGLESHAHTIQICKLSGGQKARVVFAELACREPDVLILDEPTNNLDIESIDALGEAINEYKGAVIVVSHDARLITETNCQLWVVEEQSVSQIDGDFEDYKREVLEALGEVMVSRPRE
UniProt O00154: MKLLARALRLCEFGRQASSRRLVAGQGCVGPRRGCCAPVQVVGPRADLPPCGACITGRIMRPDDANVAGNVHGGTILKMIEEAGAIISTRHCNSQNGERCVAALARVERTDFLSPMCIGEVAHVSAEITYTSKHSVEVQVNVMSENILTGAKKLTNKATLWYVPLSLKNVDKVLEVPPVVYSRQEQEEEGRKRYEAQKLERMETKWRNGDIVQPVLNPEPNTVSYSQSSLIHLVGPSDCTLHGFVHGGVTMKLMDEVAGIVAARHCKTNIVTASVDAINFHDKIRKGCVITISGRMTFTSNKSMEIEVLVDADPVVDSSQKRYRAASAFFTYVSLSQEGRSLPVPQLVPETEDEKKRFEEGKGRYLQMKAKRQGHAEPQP

Experiments:
Assay in all cases: log2 fold change, soluble protein after heating vs DMSO (PISA); higher = thermal stabilisation; K562 cells, 10 uM, 30 min; active = over 0.2 and 3.5 SD of the protein, either way, in both replicates (recomputed)
[1] = compound: NC(=O)Nc1cc(-c2cccc(F)c2)sc1C(=O)N[C@H]1CCCNC1
Method in brief: (§1)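 K562 cells at 2×10^6 cells/mL were treated for 30 min with 10 μM compound, and aliquots were heated for 3 min over 48°C-58°C before pooling. Extraction used PBS with 0.5% NP-40 at 4°C, and soluble protein was the supernatant after 21,000xg for 90 min, measured by TMTpro 16plex LC-MS/MS with channel sums equalised. Thermal stability values, relative to control samples and from duplicates, are log2 fold changes.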

[2] = compound: NC(=O)c1cnc(N[C@@H]2CCCC[C@@H]2N)nc1Nc1cccc(-n2nccn2)c1
Method in brief: as §1

[3] = compound: NC1(c2ccc(-c3nc4ccn5c(=O)[nH]nc5c4cc3-c3ccccc3)cc2)CCC1
Method in brief: as §1

[4] = compound: NCC(=O)Nc1ccc(-n2nc(C(F)(F)F)cc2-c2ccc3c(ccc4ccccc43)c2)cc1
Method in brief: as §1

entinostat = compound: Nc1ccccc1NC(=O)c1ccc(CNC(=O)OCc2cccnc2)cc1 [entinostat]
Method in brief: as §1

vorinostat = compound: O=C(CCCCCCC(=O)Nc1ccccc1)NO [vorinostat]
Method in brief: as §1

citarinostat = compound: O=C(CCCCCCNC(=O)c1cnc(N(c2ccccc2)c2ccccc2Cl)nc1)NO [citarinostat]
Method in brief: as §1

silmitasertib = compound: O=C(O)c1ccc2c(c1)nc(Nc1cccc(Cl)c1)c1ccncc12 [silmitasertib]
Method in brief: as §1

[5] = compound: O=C1NC(=O)C(c2cnc3ccccn23)=C1c1cn2c3c(cc(F)cc13)CN(C(=O)N1CCCCC1)CC2
Method in brief: as §1

[6] = compound: c1cc(OCCN2CCCCC2)cc(-c2n[nH]c3ccc(-c4nnc[nH]4)cc23)c1
Method in brief: as §1

entospletinib = compound: c1cn2cc(-c3ccc4cn[nH]c4c3)nc(Nc3ccc(N4CCOCC4)cc3)c2n1 [entospletinib]
Method in brief: as §1

Measured: log2 fold change

ADAT2 (UniProt Q7Z6V5)
inactive: [1] 0.016 | [2] 0.108 | [3] -0.05 | [4] 0.041 | entinostat -0.024 | vorinostat -0.015 | citarinostat 0.048 | silmitasertib 0.057 | [5] -0.029 | [6] -0.018 | entospletinib -0.063

ACTN4 (UniProt K7EJH8)
inactive: [1] 0.008 | [2] -0.094 | [3] 0.007 | entinostat 0.027 | vorinostat -0.033 | citarinostat 0.017 | silmitasertib -0.118 | [5] 0.031 | [6] -0.049 | entospletinib -0.086

ACOX3 (UniProt O15254)
inactive: [1] -0.084 | [2] 0.004 | [3] -0.09 | [4] 0.16 | entinostat 0.071 | citarinostat 0.287 | silmitasertib -0.302 | [5] -0.022 | [6] -0.016

ADAMTS5 (UniProt Q9UNA0)
inactive: [1] 0.026 | [2] -0.065 | [3] 0.074 | [4] -0.071 | entinostat -0.08 | vorinostat 0.056 | citarinostat 0.074 | silmitasertib -0.064 | [6] 0.051

AAMDC (UniProt Q9H7C9)
inactive: [1] 0.027 | [2] -0.044 | [3] 0.03 | [4] -0.045 | entinostat 0.026 | vorinostat -0.061 | citarinostat 0.044 | silmitasertib 0.022 | [5] -0.057 | [6] -0.037 | entospletinib -0.017

ABCB10 (UniProt Q9NRK6)
inactive: [1] 0.003 | [2] -0.004 | [3] -0.062 | [4] 0.016 | entinostat -0.015 | vorinostat 0 | citarinostat 0.036 | silmitasertib -0.01 | [5] -0.012 | [6] -0.017 | entospletinib -0.031

Taken from the listing (two entries):
ACTN4 (UniProt K7EJH8)
inactive: [1] 0.008 | [2] -0.094 | [3] 0.007 | entinostat 0.027 | vorinostat -0.033 | citarinostat 0.017 | silmitasertib -0.118 | [5] 0.031 | [6] -0.049 | entospletinib -0.086

ACOX3 (UniProt O15254)
inactive: [1] -0.084 | [2] 0.004 | [3] -0.09 | [4] 0.16 | entinostat 0.071 | citarinostat 0.287 | silmitasertib -0.302 | [5] -0.022 | [6] -0.016

(cont.)

ACTG1 (UniProt K7EM38)
inactive: [1] -0.06 | [2] -0.194 | [4] -0.007 | entinostat 0.075 | vorinostat 0.246 | citarinostat 0.055 | [5] -0.113 | [6] 0.072 | entospletinib 0.02

ACYP1 (UniProt P07311)
inactive: [1] -0.06 | [2] -0.041 | [3] -0.027 | [4] -0.093 | entinostat 0.011 | vorinostat -0.021 | citarinostat 0.03 | silmitasertib -0.007 | [5] -0.022 | [6] -0.031 | entospletinib 0.123

AARS (UniProt P49588)
inactive: [1] 0.026 | [2] -0.012 | [3] -0.081 | [4] -0.026 | entinostat 0.018 | vorinostat 0.034 | citarinostat 0.01 | silmitasertib -0.059 | [5] -0.041 | [6] -0.023 | entospletinib -0.043

ABHD14B (UniProt Q96IU4)
inactive: [1] 0.021 | [2] -0.031 | [3] -0.036 | [4] -0.012 | entinostat -0.014 | vorinostat 0.028 | citarinostat 0.062 | silmitasertib -0.006 | [5] -0.064 | [6] -0.016 | entospletinib -0.043

ABCC4 (UniProt O15439)
inactive: [1] -0.057 | [2] 0.019 | [3] 0.02 | [4] 0.002 | entinostat -0.059 | vorinostat -0.017 | citarinostat 0.032 | silmitasertib 0.022 | [5] -0.002 | [6] -0.04 | entospletinib -0.006

ACSS1 (UniProt Q9NUB1)
inactive: [1] 0.2 | [2] -0.041 | [3] -0.102 | [4] -0.122 | entinostat 0.091 | vorinostat 0.227 | citarinostat 0.033 | silmitasertib 0.063 | [6] -0.069 | entospletinib -0.003

ACTL6A (UniProt O96019)
inactive: [1] -0.024 | [2] -0.052 | [3] -0.07 | [4] -0.008 | entinostat -0.012 | vorinostat -0.006 | citarinostat 0.006 | silmitasertib -0.035 | [5] -0.007 | [6] -0.026 | entospletinib 0.006

ABCA3 (UniProt Q99758)
inactive: [1] 0.021 | [2] -0.001 | [4] -0.196 | entinostat -0.064 | vorinostat 0.02 | citarinostat 0.021 | [5] 0.134 | [6] 0

AASDHPPT (UniProt Q9NRN7)
inactive: [1] -0.017 | [2] -0.038 | [3] -0.08 | [4] -0.034 | entinostat -0.008 | vorinostat 0.004 | citarinostat 0.062 | silmitasertib 0.007 | [5] -0.057 | [6] -0.016 | entospletinib 0.008

A2M (UniProt P01023)
inactive: [1] -0.082 | [2] -0.042 | [3] 0.096 | [4] -0.019 | entinostat 0.034 | vorinostat 0.167 | citarinostat 0.04 | silmitasertib 0.092 | [5] 0.105 | [6] 0.654 | entospletinib 0.246

ACTN1 (UniProt H9KV75)
inactive: [1] 0.19 | [2] 0.051 | [3] -0.292 | [4] 0.018 | entinostat -0.078 | citarinostat 0.089 | silmitasertib -0.036 | [5] 0.119 | [6] 0.226 | entospletinib -0.333

ACO1 (UniProt P21399)
inactive: [1] -0.003 | [2] 0.011 | [3] -0.055 | [4] -0.019 | entinostat 0.001 | vorinostat 0.004 | citarinostat 0.05 | silmitasertib 0.027 | [5] -0.032 | [6] -0.035 | entospletinib -0.003

ACTA1 (UniProt P68133)
inactive: [1] -0.002 | [2] 0.006 | [3] 0.03 | [4] 0.026 | entinostat -0.029 | vorinostat -0.023 | citarinostat -0.03 | silmitasertib -0.006 | [5] -0.074 | [6] 0.018 | entospletinib -0.039

ACSS2 isoform 2 (UniProt Q9NR19)
inactive: [1] -0.008 | [2] -0.072 | [3] -0.146 | [4] -0.048 | entinostat 0.005 | vorinostat 0.028 | citarinostat 0.032 | silmitasertib -0.009 | [5] -0.059 | [6] 0.002 | entospletinib -0.014

ACAA2 (UniProt K7ER88)
inactive: [1] 0.06 | [2] -0.328 | [3] 0.503 | [4] -0.016 | entinostat -0.045 | citarinostat 0.187 | silmitasertib 0.064 | [5] 0.077 | [6] -0.032 | entospletinib -0.26

ABCB8 (UniProt Q9NUT2)
inactive: [1] -0.013 | [2] -0.059 | [3] -0.085 | [4] -0.083 | entinostat 0.015 | vorinostat -0.021 | citarinostat -0.002 | silmitasertib -0.013 | [5] -0.071 | [6] -0.048 | entospletinib -0.009

ABCA4 (UniProt P78363)
inactive: [1] 0.007 | [2] -0.092 | [3] 0.061 | entinostat 0.002 | vorinostat 0.124 | citarinostat 0.013 | silmitasertib -0.082 | [5] -0.041 | [6] 0.157

ABI1 (UniProt Q8IZP0)
inactive: [1] -0.016 | [2] 0.032 | [3] -0.062 | [4] -0.009 | entinostat -0.002 | vorinostat -0.01 | citarinostat -0.016 | silmitasertib -0.009 | [5] -0.125 | [6] -0.09 | entospletinib 0.006

ADAM10 (UniProt O14672)
inactive: [1] -0.047 | [2] 0.065 | [3] 0.036 | [4] 0.025 | entinostat -0.008 | vorinostat -0.021 | citarinostat -0.001 | silmitasertib -0.005 | [5] -0.011 | [6] -0.018 | entospletinib -0.013

ABCF1 (UniProt Q8NE71)
inactive: [1] -0.013 | [2] 0.027 | [3] 0.157 | [4] 0.065 | entinostat -0.038 | vorinostat -0.029 | citarinostat -0.048 | silmitasertib 0.024 | [5] 0.124 | [6] -0.146 | entospletinib 0.115

ABCD4 (UniProt O14678)
inactive: [1] 0.03 | [2] -0.027 | [3] -0.319 | [4] -0.098 | entinostat -0.004 | citarinostat -0.006 | silmitasertib 0.015 | [5] -0.09 | [6] -0.025 | entospletinib 0.052

ACOT7 isoform 7 (UniProt O00154)
inactive: [1] 0.046 | [2] 0.008 | [3] -0.012 | [4] 0.038 | entinostat -0.014 | vorinostat -0.008 | citarinostat 0.035 | silmitasertib -0.047 | [5] -0.015 | [6] -0.014 | entospletinib -0.001

ABCD1 (UniProt P33897)
inactive: [1] -0.058 | [2] -0.054 | entinostat 0.026 | [5] -0.001

ADCK1 (UniProt Q86TW2)
inactive: [1] 0.3 | [3] 0.054 | [4] -0.001 | entinostat 0.195 | silmitasertib -0.013 | [5] 0.121
